This is one part of the list.
test system: T1, CTL2-GFP (C. trachomatis L2/434/Bu, GFP-expressing); set-up: species or system HeLa; Intracellular C. trachomatis growth in HeLa cells, bulk GFP fluorescence relative to DMSO; conditions: bulk GFP, single well; 28.5 h, 10 µM; inhibitor
T1 construct: L2/434/Bu, GFP-expressing

Row | SMILES | % of control remaining [%]
1 | Cc1ccc(OCc2nnc(SCc3cccc(C#N)c3)n2N)cc1C [CBK267420] | 138.373
2 | Cc1nn(C)c(C)c1NC(=O)CSc1nnc(-c2cccc(Br)c2)n1-c1ccccc1 [CBK267430] | 107.656
3 | O=C(Nc1ccc(Cl)cc1)N1CCCC(CO)C1 (stereo not shown) [CBK156047] | 112.829
4 | Cn1c(SCCC(=O)O)nnc1-c1ccc2c(c1)OCO2 [CBK269842] | 149.094
5 | COc1cc(OC)cc(C(=O)Nc2ccc(S(=O)(=O)Nc3nccs3)cc2)c1 [CBK261300] | 100.953
6 | N#CCCCN1CCC(Oc2nccnc2OCc2ccccc2C(F)(F)F)CC1 [CBK153636] | 138.197
7 | COc1ccc(CC(=O)N2C3CCC2CC(O)(c2ccco2)C3)cc1 (stereo not shown) [CBK284137] | 104.432
8 | O=C(CSc1nc(O)c2c(-c3ccccc3)csc2n1)NCCc1ccccc1 [CBK268077] | 116.144
9 | CCOc1ccc(CNCCc2ccc(S(N)(=O)=O)cc2)cc1 [CBK268090C] | 126.695
10 | COCCN1CCOC2(CCN(C(=O)c3ccc(C)cc3)CC2)C1c1ccccc1OC (stereo not shown) [CBK112657C] | 110.478
11 | CCN(CC)C(=O)N1CCC2(CC1)CC(=O)c1ccccc1O2 [CBK283495] | 104.342
12 | COCCNC(=O)c1ccc(-c2ccccc2CO)nc1N1CCOCC1 [CBK076559] | 119.747
13 | Cc1cccc(Cn2cnc(NC(=O)COc3ccc([N+](=O)[O-])c(C)c3)n2)c1 [CBK268177] | 113.078
14 | O=C(O)CN(Cc1ccccc1)Cc1ccccc1 [CBK260903] | 114.489
15 | CN1CCN(C(=O)Cn2c(-c3cccs3)cc3cccnc32)CC1 [CBK282558] | 115.506
16 | O=C(CC1(O)C(=O)N(CN2CCOCC2)c2ccccc21)c1ccc2c(c1)OCO2 (stereo not shown) [CBK269639] | 126.264
17 | O=C(c1ccc(OC(F)(F)F)cc1)N1CCN(c2nnnn2-c2ccccc2)CC1 [CBK296622] | 150.325
18 | COc1ccc(S(=O)(=O)NCCO)cc1-c1nnc2c3ccccc3c(C)nn12 [CBK266933] | 149.706
19 | COCCNc1nc(-c2cccc(Cl)c2Cl)ccc1C(=O)N(C)CCN(C)C [CBK105922] | 108.561
20 | Cn1c(=O)n(CC(=O)N2CCc3ccccc32)c2cccnc21 [CBK283792] | 109.898
21 | CN(C)CCN(C)c1cncc(-c2ccc(Cl)cc2)n1 [CBK065724] | 92.9322
22 | Cc1cc2c(=O)n(Cc3ccco3)c(SCc3nc4ccccc4[nH]3)nc2s1 [CBK268202] | 125.58
23 | CC(=O)OCc1ccc(CN2CCCCCC2c2cc(C)on2)o1 (stereo not shown) [CBK283004] | 122.872
24 | Cc1ccc(S(=O)(=O)NCc2c(-c3ccccc3)c3cc(Br)ccc3[nH]c2=O)cc1 [CBK265231] | 132.999
25 | CN(C)CCN(Cc1ccccc1)C(=O)NCc1cccnc1 [CBK145048] | 115.422
26 | CNC(=O)C1(Cc2ccccc2-c2ccccc2)CCN(C(=O)Cc2ccccc2)CC1 [CBK285695] | 110.286

Row | SMILES | % of control remaining [%]
27 | CC(C)=NNC(=N)Nc1ccccc1 [CBK021452] | 123.187
28 | COc1ccc(-c2cc(N3CCN(CCN4CCCC4)CC3)ncn2)cc1OC [CBK091173] | 166.021
29 | COCn1nccc1S(=O)(=O)NCCc1cn2ccccc2n1 [CBK304060] | 130.909
30 | CCCn1c(CN2CCOCC2)nc2ccccc21 [CBK287784] | 95.3916
31 | Cn1c(N2CC[C@H](O)C2)nc2cc(C(=O)NCc3ccsc3)ccc21 [CBK307471] | 148.051
32 | O=C(O)c1ccc2c(c1)C(=O)N(c1ccc(-c3nc(-c4ccccc4)c4ccccc4n3)cc1)C2=O [CBK263311] | 114.564
33 | CCOc1ccc(C(N)CC(=O)O)c2ccccc12 (stereo not shown) [CBK287120] | 127.508
34 | Cc1ccc(CN(Cc2ncc[nH]2)C2CC(C)(C)NC(C)(C)C2)o1 [CBK283191] | 113.266
35 | CC(C(=O)NC(c1ccncc1)c1cccs1)n1ccnc1 (stereo not shown) [CBK281438] | 146.218
36 | O=C1CC(c2ccc(Br)cc2)Nc2ccc3ccccc3c21 (stereo not shown) [CBK094798] | 119.035
37 | COCCNc1nccnc1-c1cccnc1 [CBK037376] | 167.737
38 | CC(/C(=N/O)c1ccccc1)C(O)c1ccccn1 (stereo not shown) [CBK022993] | 102.551
39 | COc1ccc2c(c1)CCCN2C(=O)Cn1nc(C)cc1C [CBK282042] | 114.055
40 | COc1ccc([C@@]23CCC(NC(=O)Nc4ccccc4OC(F)F)C[C@@H]2N(C)CC3)cc1OC (stereo partly shown) [CBK047547T] | 100.771
41 | CCCc1csc(C2CN3CCCC3CO2)n1 (stereo not shown) [CBK304799] | 107.034
42 | CC1(Cc2ccn[nH]2)SCCCS1 [CBK019308C] | 87.5214
43 | CCC1(CC)OC(NC[C@@H](C)c2ccccc2)=NC1=O [CBK123983] | 70.8299
44 | COCC(=O)N1CCC(Oc2ccc3ncccc3c2)(C(=O)O)CC1 [CBK307340] | 130.106
45 | CCN(CC)C(=O)c1ccc(-c2ccc(NC(C)=O)cc2)nc1 [CBK158850] | 104.708
46 | CC(C)(C)c1ccc(-c2cnc3ncccc3c2O)cc1 [CBK089628] | 116.208
47 | CCCCCOc1ccc(Nc2cc(-c3ccc(N(C)C)cc3)ncn2)cc1 [CBK090889] | 73.0861
48 | Cc1noc(C)c1S(=O)(=O)Nc1c(C(=O)O)sc2ncccc12 [CBK049988] | 108.896
49 | CS(=O)(=O)N1CC2(CCN(Cc3ccc(Cl)c(Cl)c3)CC2)c2ccccc21 [CBK084043] | 99.8249
50 | COc1ccc(CNC(=O)N2CCCCC2CO)cc1OC (stereo not shown) [CBK155981] | 109.599
51 | Nc1cccc(S(=O)(=O)N2CCC(C(=O)O)CC2)c1 [CBK286541] | 114.221
52 | Cc1ccc(S(=O)(=O)N(CC(O)Cn2c3ccc(Cl)cc3c3cc(Cl)ccc32)c2ccccc2)cc1 (stereo not shown) [CBK263353] | 118.422

4 entries from above, comma-delimited:
Row,SMILES,% of control remaining [%]
49,CS(=O)(=O)N1CC2(CCN(Cc3ccc(Cl)c(Cl)c3)CC2)c2ccccc21 [CBK084043],99.8249
50,COc1ccc(CNC(=O)N2CCCCC2CO)cc1OC (stereo not shown) [CBK155981],109.599
51,Nc1cccc(S(=O)(=O)N2CCC(C(=O)O)CC2)c1 [CBK286541],114.221
52,Cc1ccc(S(=O)(=O)N(CC(O)Cn2c3ccc(Cl)cc3c3cc(Cl)ccc32)c2ccccc2)cc1 (stereo not shown) [CBK263353],118.422

— paper PMC12040169 (PLOS Biology, 2025)
